Laboratory results published in ChEMBL document CHEMBL5674883, “The Heterochromatin Landscape in Migrating Cells and the Importance of H3K27me3 for Associated Transcriptome Alterations” (Cells, 2018).
Further values from the same series stand in other lists.

By UniProt entry, the sequences of proteins in these tests, tags left out.
UniProt Q61188, whole entry: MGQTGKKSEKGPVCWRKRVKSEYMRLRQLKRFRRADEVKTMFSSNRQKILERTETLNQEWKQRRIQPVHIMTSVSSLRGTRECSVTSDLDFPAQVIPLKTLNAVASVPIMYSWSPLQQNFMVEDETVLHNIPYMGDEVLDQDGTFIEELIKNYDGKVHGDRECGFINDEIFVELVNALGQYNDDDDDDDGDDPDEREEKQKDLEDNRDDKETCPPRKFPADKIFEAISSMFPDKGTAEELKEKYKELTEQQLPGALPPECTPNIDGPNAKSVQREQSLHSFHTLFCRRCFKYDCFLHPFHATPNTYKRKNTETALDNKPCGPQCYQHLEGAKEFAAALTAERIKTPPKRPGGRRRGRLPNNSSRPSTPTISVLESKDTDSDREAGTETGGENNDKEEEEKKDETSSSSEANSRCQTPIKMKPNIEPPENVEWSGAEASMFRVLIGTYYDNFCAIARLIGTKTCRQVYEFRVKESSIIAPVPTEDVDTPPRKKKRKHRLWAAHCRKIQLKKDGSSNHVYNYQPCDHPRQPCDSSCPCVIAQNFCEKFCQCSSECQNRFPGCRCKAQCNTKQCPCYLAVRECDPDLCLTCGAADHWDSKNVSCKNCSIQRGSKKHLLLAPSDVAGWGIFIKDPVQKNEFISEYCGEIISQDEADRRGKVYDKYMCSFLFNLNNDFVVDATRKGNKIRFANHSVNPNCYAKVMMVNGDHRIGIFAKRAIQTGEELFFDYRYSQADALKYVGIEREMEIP

Assays:
Format in all cases: cell-based
[1] = target: Histone-lysine N-methyltransferase EZH2 (Mus musculus) (UniProt Q61188); assay: Inhibition of EZH2 in mouse B16-F1 migrating cells assessed as fold change in H3K27me3-dependent regulated Vasn-mRNA expression at 3 uM measured by ChIP-seq analysis relative to control cells
[2] = target: Histone-lysine N-methyltransferase EZH2 (Mus musculus) (UniProt Q61188); assay: Inhibition of EZH2 in mouse B16-F1 migrating cells assessed as fold change in H3K27me3-independent regulated Tppp3-mRNA expression at 3 uM measured by ChIP-seq analysis relative to control cells
[3] = target: Histone-lysine N-methyltransferase EZH2 (Mus musculus) (UniProt Q61188); assay: Inhibition of EZH2 in mouse B16-F1 migrating cells assessed as fold change in H3K27me3-independent regulated Zfp395-mRNA expression at 3 uM measured by ChIP-seq analysis relative to control cells
[4] = target: Histone-lysine N-methyltransferase EZH2 (Mus musculus) (UniProt Q61188); assay: Inhibition of EZH2 in mouse B16-F1 migrating cells assessed as fold change in H3K27me3-buffered regulated Pgm2-mRNA expression at 3 uM measured by ChIP-seq analysis relative to control cells
[5] = target: Histone-lysine N-methyltransferase EZH2 (Mus musculus) (UniProt Q61188); assay: Inhibition of EZH2 in mouse B16-F1 migrating cells assessed as fold change in H3K27me3-buffered regulated Smpd1-mRNA expression at 3 uM measured by ChIP-seq analysis relative to control cells
[6] = target: Histone-lysine N-methyltransferase EZH2 (Mus musculus) (UniProt Q61188); assay: Inhibition of EZH2 in mouse B16-F1 migrating cells assessed as fold change in H3K27me3-buffered regulated Wdr76-mRNA expression at 3 uM measured by ChIP-seq analysis relative to control cells
[7] = target: Histone-lysine N-methyltransferase EZH2 (Mus musculus) (UniProt Q61188); assay: Inhibition of EZH2 in mouse B16-F1 migrating cells assessed as fold change in H3K27me3-buffered regulated Clk2-mRNA expression at 3 uM measured by ChIP-seq analysis relative to control cells
[8] = target: Histone-lysine N-methyltransferase EZH2 (Mus musculus) (UniProt Q61188); assay: Inhibition of EZH2 in mouse B16-F1 migrating cells assessed as fold change in H3K27me3-buffered regulated Neil3-mRNA expression at 3 uM measured by ChIP-seq analysis relative to control cells
[9] = target: Histone-lysine N-methyltransferase EZH2 (Mus musculus) (UniProt Q61188); assay: Inhibition of EZH2 in mouse B16-F1 migrating cells assessed as fold change in H3K27me3-buffered regulated Lrrcc1-mRNA expression at 3 uM measured by ChIP-seq analysis relative to control cells
[10] = target: Histone-lysine N-methyltransferase EZH2 (Mus musculus) (UniProt Q61188); assay: Inhibition of EZH2 in mouse B16-F1 migrating cells assessed as fold change in H3K27me3-buffered regulated Six5-mRNA expression at 3 uM measured by ChIP-seq analysis relative to control cells
[11] = target: Histone-lysine N-methyltransferase EZH2 (Mus musculus) (UniProt Q61188); assay: Inhibition of EZH2 in mouse B16-F1 migrating cells assessed as fold change in H3K27me3-buffered regulated Arhgef39-mRNA expression at 3 uM measured by ChIP-seq analysis relative to control cells
[12] = target: Histone-lysine N-methyltransferase EZH2 (Mus musculus) (UniProt Q61188); assay: Inhibition of EZH2 in mouse B16-F1 migrating cells assessed as fold change in H3K27me3-buffered regulated Vgll3-mRNA expression at 3 uM measured by ChIP-seq analysis relative to control cells
[13] = target: Histone-lysine N-methyltransferase EZH2 (Mus musculus) (UniProt Q61188); assay: Inhibition of EZH2 in mouse B16-F1 migrating cells assessed as fold change in H3K27me3-buffered regulated Slfn9-mRNA expression at 3 uM measured by ChIP-seq analysis relative to control cells
[14] = target: T1, RNA polymerase II (Mus musculus) (UniProt P08775+Q8CFI7+P97760+A0A3Q4L2S8+Q80UW8+P61219+P62488+Q923G2+P60898+O08740+Q63871+P62876); assay: Inhibition of RNA polymerase II in mouse B16-F1 migrating cells assessed as fold change in Mpp2-RNA stability at 0.1 mM measured by ChIP-seq analysis relative to control cells
[15] = target: T1, RNA polymerase II (Mus musculus); assay: Inhibition of RNA polymerase II in mouse B16-F1 migrating cells assessed as fold change in Bsg-RNA stability at 0.1 mM measured by ChIP-seq analysis relative to control cells
[16] = target: T1, RNA polymerase II (Mus musculus); assay: Inhibition of RNA polymerase II in mouse B16-F1 migrating cells assessed as fold change in Rps28-RNA stability at 0.1 mM measured by ChIP-seq analysis relative to control cells
[17] = target: T1, RNA polymerase II (Mus musculus); assay: Inhibition of RNA polymerase II in mouse B16-F1 migrating cells assessed as fold change in Zyx-RNA stability at 0.1 mM measured by ChIP-seq analysis relative to control cells
[18] = target: T1, RNA polymerase II (Mus musculus); assay: Inhibition of RNA polymerase II in mouse B16-F1 migrating cells assessed as fold change in Rps13-RNA stability at 0.1 mM measured by ChIP-seq analysis relative to control cells
[19] = target: T1, RNA polymerase II (Mus musculus); assay: Inhibition of RNA polymerase II in mouse B16-F1 migrating cells assessed as fold change in Cope-RNA stability at 0.1 mM measured by ChIP-seq analysis relative to control cells
[20] = target: T1, RNA polymerase II (Mus musculus); assay: Inhibition of RNA polymerase II in mouse B16-F1 migrating cells assessed as fold change in Tmem192-RNA stability at 0.1 mM measured by ChIP-seq analysis relative to control cells
[21] = target: T1, RNA polymerase II (Mus musculus); assay: Inhibition of RNA polymerase II in mouse B16-F1 migrating cells assessed as fold change in Dynll1-RNA stability at 0.1 mM measured by ChIP-seq analysis relative to control cells
[22] = target: T1, RNA polymerase II (Mus musculus); assay: Inhibition of RNA polymerase II in mouse B16-F1 migrating cells assessed as fold change in Plekhb2-RNA stability at 0.1 mM measured by ChIP-seq analysis relative to control cells
[23] = target: T1, RNA polymerase II (Mus musculus); assay: Inhibition of RNA polymerase II in mouse B16-F1 migrating cells assessed as fold change in Cpne4-RNA stability at 0.1 mM measured by ChIP-seq analysis relative to control cells
[24] = target: T1, RNA polymerase II (Mus musculus); assay: Inhibition of RNA polymerase II in mouse B16-F1 migrating cells assessed as fold change in Sfxn5-RNA stability at 0.1 mM measured by ChIP-seq analysis relative to control cells
[25] = target: T1, RNA polymerase II (Mus musculus); assay: Inhibition of RNA polymerase II in mouse B16-F1 migrating cells assessed as fold change in A830082K12Rik-RNA stability at 0.1 mM measured by ChIP-seq analysis relative to control cells
[26] = target: T1, RNA polymerase II (Mus musculus); assay: Inhibition of RNA polymerase II in mouse B16-F1 migrating cells assessed as fold change in Ipo7-RNA stability at 0.1 mM measured by ChIP-seq analysis relative to control cells
[27] = target: T1, RNA polymerase II (Mus musculus); assay: Inhibition of RNA polymerase II in mouse B16-F1 migrating cells assessed as fold change in Knl1-RNA stability at 0.1 mM measured by ChIP-seq analysis relative to control cells
[28] = target: T1, RNA polymerase II (Mus musculus); assay: Inhibition of RNA polymerase II in mouse B16-F1 migrating cells assessed as fold change in Pola1-RNA stability at 0.1 mM measured by ChIP-seq analysis relative to control cells
[29] = target: T1, RNA polymerase II (Mus musculus); assay: Inhibition of RNA polymerase II in mouse B16-F1 migrating cells assessed as fold change in Ube3a-RNA stability at 0.1 mM measured by ChIP-seq analysis relative to control cells
[30] = target: T1, RNA polymerase II (Mus musculus); assay: Inhibition of RNA polymerase II in mouse B16-F1 migrating cells assessed as fold change in Tmx3-RNA stability at 0.1 mM measured by ChIP-seq analysis relative to control cells

CCCc1cc(C)[nH]c(=O)c1CNC(=O)c1cc(-c2ccnc(N3CCN(C)CC3)c2)cc2c1cnn2C(C)C
log2FC [1]: 0.43 | log2FC [2]: 1.57 | log2FC [3]: -0.85 | log2FC [4]: 0.41 | log2FC [5]: 0.39 | log2FC [6]: -0.4 | log2FC [7]: -0.42 | log2FC [8]: -0.43 | log2FC [9]: -0.44 | log2FC [10]: -0.5 | log2FC [11]: -0.51 | log2FC [12]: -0.52 | log2FC [13]: -0.59

OC[C@H]1O[C@@H](n2cnc3cc(Cl)c(Cl)cc32)[C@H](O)[C@@H]1O
log2FC [14]: 1.03 | log2FC [15]: 0.68 | log2FC [16]: 0.51 | log2FC [17]: 0.51 | log2FC [18]: 0.48 | log2FC [19]: 0.46 | log2FC [20]: 0.44 | log2FC [21]: 0.42 | log2FC [22]: 0.39 | log2FC [23]: -0.55 | log2FC [24]: -0.62 | log2FC [25]: -0.64 | log2FC [26]: -0.66 | log2FC [27]: -0.8 | log2FC [28]: -0.81 | log2FC [29]: -0.86 | log2FC [30]: -1.06
